PubChem BioAssay AID602313 (National Center for Advancing Translational Sciences (NCATS), 2012)
In all, about 390,000 compounds went through this assay and about 760 (0.19%) were called active. The shares of active, inactive and inconclusive entries below differ from those in the screen. Calls come from the whole dose curve; as a rule, active = well fitted inhibition curve with a large enough effect; inconclusive = small, poorly fitted or top-dose-only effect; inactive = flat fitted curve, though single readings scatter. Where the call is inconclusive, the potency comes from a doubtful curve fit.
Potency is the fitted concentration of half-maximal effect.

Test: qHTS for Inhibitors of Vif-A3F Interactions: qHTS; note: nearly all actives have a fitted effect of over 65% in size; for activity, negative = active: % of control where 0% means no effect
Conditions: HeLa A3F-eYFP + Vif (tagged APOBEC3F with the HIV-1 protein that degrades it), YFP fluorescence increase; series mostly up to 46.1 µM; activity, negative = active: at the top concentration
Procedure, shortened: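 HeLa cells stably expressing Vif plus C-terminally eYFP-tagged A3F were seeded, incubated overnight at 37 deg C, dosed with compound, incubated overnight again at 37 deg C. Yellow fluorescence (Ex 488/Em 500-530) reported blocked Vif-mediated A3F-eYFP degradation.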
For `Cc1ccccc1OCCn1cnc2cc([N+](=O)[O-])ccc2c1=O`, the Potency was inconclusive: 22.4 µM [inhibitor, single point].
With `Cc1ccc(C)c(OCCCNCc2ccccc2)c1` the Potency was inconclusive: 35.5 µM [inhibitor, single point].
With `COc1ccc(C(CCNCc2ccc(F)cc2)c2ccc(F)cc2)cc1` (configuration not stated) the Potency was inconclusive: 8.91 µM [inhibitor, partial curve].
With `COc1ccc(CC(=O)N2CCN(C(=O)Cc3ccc(OC)c(OC)c3)CC2)cc1OC` the “activity, negative = active” value was inactive: -3.46%.
For `CCN(CC(=O)Nc1cc(Cl)ccc1C)C(=O)C1CC(=O)N(Cc2ccccc2)C1` (configuration not stated), the Potency was inconclusive: 1 µM [inhibitor, partial curve, poor fit].
In the case of `COCCCNC(=O)C[C@H]1C[C@H](C(=O)N2CCCCC2)[C@@]2(CCc3ccccc3)c3[nH]c4ccc(Cl)cc4c3CCN2C1=O`, the Potency is reported as inconclusive: 35.5 µM [inhibitor, single point].
For `COc1cccc(CN2CCN(c3ccc(F)cc3)C2=O)c1`, the “activity, negative = active” value was inactive: -2.22%.
With `CCS(=O)(=O)Nc1cccc(C2=NN(S(=O)(=O)c3ccc(C)cc3)C(c3cccs3)C2)c1` (configuration not stated) the Potency was inconclusive: 35.5 µM [inhibitor, single point].
For `Cc1cc(=O)[nH]c(N/N=C/c2c(C)nn(-c3ccccc3)c2C)n1`, the Potency was inconclusive: 1.12 µM [inhibitor, partial curve, poor fit].
In the case of `CNC(=O)C(Sc1nc(C)nc2c1oc1ccccc12)C(C)=O` (configuration not stated), the Potency is reported as inconclusive: 22.4 µM [inhibitor, single point].
With `Cc1cc(C(=O)N/N=C/c2ccc([N+](=O)[O-])o2)c(C)o1` the “activity, negative = active” value was inactive: -0.342%.
For `O=C(CSC1=NNC(c2ccccn2)S1)Nc1cccc(Cl)c1` (configuration not stated), the Potency was inconclusive: 2.82 µM [inhibitor, partial curve, poor fit].
In the case of `CCOC(=O)c1cc2c(=O)n3ccccc3nc2n(Cc2ccco2)c1=NC(=O)c1c(F)cccc1Cl`, the Potency is reported as inconclusive: 12.6 µM [inhibitor, single point].
For `COc1ccc2c(C)cc(=S)[nH]c2c1`, the “activity, negative = active” value was inactive: 12.6%.
For `CCc1ccc(Nc2n[n+](-c3ccccc3)c(-c3ccc(SC)cc3)s2)cc1`, the “activity, negative = active” value was inactive: -0.22%.
With `Cc1cccc(C(=O)Nc2c(C(=O)NCc3ccc(Cl)cc3)sc3nc(C)cc(C)c23)c1` the Potency was inconclusive: 17.8 µM [inhibitor, partial curve, poor fit].
With `COc1ccc(OC)c(N(CC(=O)NCCSCc2ccco2)S(=O)(=O)c2ccc(OC)c(OC)c2)c1` the Potency was inconclusive: 2.51 µM [inhibitor, partial curve, poor fit].
In the case of `COC(=O)Cn1c(C)c(/C=C/c2cc[n+](C)cc2)c2ccccc21`, the Potency is reported as active: 11.2 µM.
In the case of `C[C@H](O)[C@@H]1CN2CCc3c([nH]c4ccccc34)[C@@H]2C[C@@H]1N(C)C(=O)NC1CCCCC1`, the Potency is reported as inconclusive: 12.6 µM [inhibitor, partial curve, poor fit].
In the case of `CCc1ccc(N=C2NC(=O)/C(=C/c3cc(OC)c(O)c(OC)c3)S2)cc1`, the Potency is reported as inconclusive: 31.6 µM [inhibitor, single point].
In the case of `O=C(NC1CCN(Cc2ccc(F)cc2)CC1)c1ccccc1`, the Potency is reported as inconclusive: 5.01 µM [inhibitor, single point].
In the case of `Cn1c(=O)[nH]c(=O)c2c1nc(N1CCC(Cc3ccccc3)CC1)n2Cc1ccccc1`, the Potency is reported as inconclusive: 35.5 µM [inhibitor, single point].
For `O=C(NC(=S)Nc1ccccc1N1CCCCC1)c1ccccc1`, the Potency was inconclusive: 11.2 µM [inhibitor, partial curve].
For `COc1cc2ccc(C(C)=NNC(N)=S)cc2cc1OC`, the Potency was inconclusive: 35.5 µM [inhibitor, single point].
For `CCOc1ccccc1N1CC(c2nc3ccccc3n2Cc2c(C)cc(C)cc2C)CC1=O` (configuration not stated), the Potency was active: 12.6 µM.
In the case of `COCc1cc(=O)[nH]c(=S)[nH]1`, the Potency is reported as inconclusive: 11.2 µM [inhibitor, single point].
With `COc1ccc(-c2nc(C)c(CCNC(=O)C(=O)Nc3cc(C)cc(C)c3)s2)cc1OC` the Potency was inconclusive: 5.62 µM [inhibitor, single point].
With `CCCCOC1CC(c2ccc(OCc3ccc(OC)cc3)c(OC)c2)N(C)O1` (configuration not stated) the Potency was inconclusive: 3.16 µM [inhibitor, single point].
For `CCOc1cc(/C=N/N=C(\N)c2nonc2N)cc(Br)c1OCc1cccc2ccccc12`, the Potency was inconclusive: 7.08 µM [inhibitor, partial curve, poor fit].
In the case of `COc1cccc(CNCCSc2nnnn2C)c1OCc1ccccc1F`, the “activity, negative = active” value is reported as inactive: -0.822%.
In the case of `CC1CCCCN1CC(=O)NCc1ccc2c(c1)OCO2` (configuration not stated), the Potency is reported as inconclusive: 12.6 µM [inhibitor, partial curve, poor fit].
In the case of `CCC(C)[C@H](N)C(=O)NC[C@H]1CC[C@H](C(=O)N[C@@H](Cc2ccccc2)C(=O)O)CC1` (some centres not stated), the “activity, negative = active” value is reported as inactive: 3.65%.
In the case of `Cn1c(=O)c(NCCc2ccccc2)c2c3c(cccc31)C(=O)c1ccccc1-2`, the Potency is reported as inconclusive: 3.16 µM [inhibitor, partial curve, poor fit].
For `COc1cccc(-c2nc(-c3ccc4c(c3)NC(=O)CO4)cs2)c1`, the “activity, negative = active” value was inactive: -2.81%.
With `COc1ccc(S(=O)(=O)Nc2ccc3c(c2)n(C)c(=O)n3C)cc1OC` the Potency was inconclusive: 3.16 µM [inhibitor, partial curve, poor fit].
In the case of `O=C(O)c1cc(-c2ccc(/C=N/NC(=S)Nc3ccccc3)o2)ccc1Cl`, the “activity, negative = active” value is reported as inactive: -1.8%.
With `COc1cccc(N2CCN(C(=O)c3cnn(-c4ccc(C)cc4C)c3C3CCN(C(=O)OC(C)(C)C)CC3)CC2)c1` the “activity, negative = active” value was inactive: 1.79%.
For `COc1cccc(C(=O)CC(=O)C(=O)Nc2cc(OC)ccc2OC)c1`, the Potency was inconclusive: 2.82 µM [inhibitor, full curve, poor fit].
For `O=C1/C(=N\S(=O)(=O)c2cccs2)C([n+]2cccc(Cc3ccccc3)c2)=C([O-])c2ccccc21`, the Potency was inconclusive: 35.5 µM [inhibitor, single point].
With `Cc1ccc(-c2nc(CS(=O)(=O)CC(=O)NC3CCCCCC3)c(C)o2)cc1` the “activity, negative = active” value was inactive: -0.353%.
With `Cc1ccc(NC(=O)c2ccc(N3CCOCC3)c([N+](=O)[O-])c2)cc1S(=O)(=O)N1CCOCC1` the “activity, negative = active” value was inactive: 2.41%.
With `COc1ccc([N+](=O)[O-])cc1NS(=O)(=O)c1cc(C(=O)N2CCN(C)CC2)ccc1OC` the Potency was inconclusive: 3.55 µM [inhibitor, single point].
In the case of `Cn1nnc2c[n+](CC(=O)c3ccc4ccccc4c3)cc(Br)c21`, the Potency is reported as inconclusive: 35.5 µM [inhibitor, single point].
For `COc1ccc(N2CCN(S(=O)(=O)c3ccc(OC)c(C(=O)N4CCCC4)c3)CC2)cc1`, the Potency was inconclusive: 35.5 µM [inhibitor, single point].
For `CC(C)c1nn2c(=O)cc(COC(=O)c3ccccc3NC(=O)COc3ccccc3)nc2s1`, the Potency was inconclusive: 11.2 µM [inhibitor, partial curve, poor fit].
With `COC(=O)c1cc(S(=O)(=O)C(C)C)c(S(C)=O)s1` (configuration not stated) the Potency was inconclusive: 6.31 µM [inhibitor, partial curve, poor fit].
In the case of `COc1ccc(S(=O)(=O)N2CCc3ccccc3C2)cc1OC`, the “activity, negative = active” value is reported as inactive: -3.77%.
With `Cc1cccc(NC(=S)NNC(=O)c2ccccc2Br)c1` the Potency was inconclusive: 3.55 µM [inhibitor, partial curve, poor fit].
For `N#C/C(=C(/O)CCl)c1nnc2n1CCCCC2`, the “activity, negative = active” value was inactive: -19.6%.
For `Cn1c(=O)c2ncn(C)c2n(C)c1=O`, the Potency was inconclusive: 12.6 µM [inhibitor, single point].
With `COC(=O)C1=C(C)NC(C)=C(C(=O)OC)C1C1CC=CCC1` (configuration not stated) the “activity, negative = active” value was inactive: 0.93%.
With `O=S(=O)(c1cccs1)N1CCN(c2ccnc3cc(Cl)ccc23)CC1` the “activity, negative = active” value was inactive: 6.52%.
With `Cc1ccc(NP(=O)(c2ccc(N(C)C)cc2NC(=O)c2cccs2)N2CCOCC2)cc1Cl` (configuration not stated) the “activity, negative = active” value was inactive: -4.77%.
For `COc1cccc(/C=N/n2c(N)c(S(=O)(=O)c3cccs3)c3nc4ccccc4nc32)c1OC`, the Potency was inconclusive: 17.8 µM [inhibitor, partial curve, poor fit].
In the case of `O=C(NCc1ccco1)/C(=C/c1cccc([N+](=O)[O-])c1)NC(=O)c1ccco1`, the Potency is reported as inconclusive: 6.31 µM [inhibitor, single point].
For `O=C(NCCCO)c1c(O)c2cccc3c2n(c1=O)CCC3`, the Potency was inconclusive: 28.2 µM [inhibitor, single point].
In the case of `CC(=O)Nc1ccc(NC2=C(Cl)C(=O)c3ccccc3C2=O)cc1`, the “activity, negative = active” value is reported as inactive: 5.7%.
With `Cc1nnc(N2C(=O)c3cccc4c([N+](=O)[O-])ccc(c34)C2=O)s1` the Potency was active: 28.2 µM.
In the case of `Cc1ccc(C(=O)Nc2nnc(CC(=O)N/N=C/c3ccncc3)s2)cc1`, the “activity, negative = active” value is reported as inactive: -15.3%.
With `Cn1c(-n2cccc2)c(-c2c(-c3ccccc3)[nH]c3c2c(=O)[nH]c(=O)n3C)c(=O)[nH]c1=O` the “activity, negative = active” value was inactive: 2.24%.
In the case of `O=C(NC1CCCCC1)C(c1ccncc1)N(C(=O)c1csnn1)c1cccc(F)c1` (configuration not stated), the Potency is reported as inconclusive: 35.5 µM [inhibitor, single point].
For `Cc1cc(C)c2sc(NC(=O)c3ccc([N+](=O)[O-])o3)nc2c1`, the Potency was inconclusive: 3.55 µM [inhibitor, partial curve, poor fit].
With `Cc1cc(NC(=O)CSc2nc(Cc3ccc(O)cc3)c(C)[nH]2)no1` the “activity, negative = active” value was inactive: -3.01%.
With `O=C(CSc1nnc(Cc2ccsc2)o1)c1ccccc1` the Potency was inconclusive: 5.62 µM [inhibitor, single point].
In the case of `CCOC(=O)CN1C(=O)c2ccccc2C1=O`, the “activity, negative = active” value is reported as inactive: 0.829%.
In the case of `COc1ccc(OC)c(Nc2nc(NCCCN(C)C)nc(N)c2[N+](=O)[O-])c1`, the “activity, negative = active” value is reported as inactive: 8.63%.
In the case of `Cc1cn2c(=O)c(S(=O)(=O)NCc3ccccc3Cl)c(C)nc2s1`, the “activity, negative = active” value is reported as inactive: 2.08%.
